The record followed here is PMC10516654, “Structural and functional characterization of MrpR, the master repressor of the Bacillus subtilis prophage SPβ”.

Results are given in words; binding and its absence hold for the method and conditions named. Tags and fused reporters may be left off the sequences shown.

Test [1] addresses MrpR-His6 (MrpR wild-type protein, master repressor of the Bacillus subtilis prophage SPβ) (Bacillus subtilis prophage SPβ) (UniProt O34558). Kind of test: crystal structure; apo MrpR-His6, 480 μM, sitting drop vapor diffusion at 20°C; two MrpR molecules in the asymmetric unit; 2.9 Å; both purified.
For test [2] the target is unchanged. As to the kind of experiment: SEC; analytical SEC, S200 300/10 GL; protein at 100 μM, 100 μl injected at 4°C; 20 mM HEPES-Na (pH 6.37), 200 mM NaCl, 20 mM KCl; calibrated with standard proteins; both purified.

B1: MrpR-His6 (MrpR wild-type protein, master repressor of the Bacillus subtilis prophage SPβ) (protein, UniProt O34558 2-325)
chain: FNSEIKEKYLDTLSEGMVMQMRPIFAKAEITETLYNKDIYDFTSMQILELIRSFDQTTIGSVRRTLALLSLYIDWAISYKLSKGLTNLARTISEEELYECLGDKKLYITYSELEEMENQLVNYQSKAVLRLLFEGVSGLAHSELLSLTKKQVEDAMLNGNVLTLYDSKHGERKLKVSSECLVIALNAAQETKYKLKNGKAKGQTKEVFLVENDYVVKTKRTSNKGDGQASKFVITNLITDISEFFKINFLTPNTIVRSGHLYRAYQLYKEKGVIDNSVRYQIIDDFNLRVKSKYRAVYSMQDYINEEEVNKYYAEELGLKETTI
B1: the binding entry in test [1] is recorded as “no binding”; in test [2] it was “no binding (tested: 100 μM)”.
